Source: article PMC10913587
No constants are given. Whether binding was seen depends on the method and setting. Some binding calls cover weakened binding; strength is not graded here.

Sequences of proteins named here, by UniProt entry; tags and fusion partners are left off. Residues count along the entry.
UniProt O35235, residues 139-316: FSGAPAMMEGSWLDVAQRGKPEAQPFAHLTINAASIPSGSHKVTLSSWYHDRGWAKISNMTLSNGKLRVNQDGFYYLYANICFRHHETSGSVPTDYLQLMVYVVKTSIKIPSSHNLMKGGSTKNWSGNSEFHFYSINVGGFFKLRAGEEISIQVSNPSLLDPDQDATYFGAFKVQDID

Molecular target: T1, RANK on the cell membranes of RAW 264.7 cells (mouse (endogenous in RAW 264.7)) (UniProt O35305)
T1 sequence: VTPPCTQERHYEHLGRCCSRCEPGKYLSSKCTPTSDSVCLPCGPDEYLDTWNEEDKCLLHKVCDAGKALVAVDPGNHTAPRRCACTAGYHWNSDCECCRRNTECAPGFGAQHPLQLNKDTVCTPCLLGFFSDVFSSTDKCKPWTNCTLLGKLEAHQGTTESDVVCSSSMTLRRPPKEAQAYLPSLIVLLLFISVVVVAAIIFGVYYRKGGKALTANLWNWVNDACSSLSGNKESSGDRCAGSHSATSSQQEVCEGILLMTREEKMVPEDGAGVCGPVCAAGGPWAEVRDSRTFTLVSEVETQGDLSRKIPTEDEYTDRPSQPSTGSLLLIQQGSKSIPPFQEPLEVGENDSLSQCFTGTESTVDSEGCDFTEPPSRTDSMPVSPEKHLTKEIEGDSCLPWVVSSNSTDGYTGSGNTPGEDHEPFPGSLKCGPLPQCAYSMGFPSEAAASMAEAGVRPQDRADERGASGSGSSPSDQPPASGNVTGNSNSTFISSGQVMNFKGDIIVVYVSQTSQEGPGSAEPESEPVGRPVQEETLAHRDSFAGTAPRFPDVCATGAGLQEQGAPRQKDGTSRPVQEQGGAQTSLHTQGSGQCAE
Experiment: depletion of RANKL from culture medium by cells, RANKL left in the supernatant measured by ELISA; RAW 264.7 cells (2 x 10^5 per well, 6-well plates) incubated with RANKL (50 ng/ml) and SAHA (0, 0.5, 1 μM) for 72 h at 37 °C; supernatant cleared by centrifugation; RANKL solutions not incubated with cells as positive controls; only the binder purified

With “recombinant murine RANKL (receptor activator of nuclear factor κB ligand) (from UniProt O35235 139-316)” the binding was “binds”.
